# Primary screen of a compound library

Data taken from ChEMBL document CHEMBL3988442, “University of Dundee, Small-Polar-MMV Screening Library” (2021).

Mtb glucose medium: 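Whole-cell growth test on Mycobacterium tuberculosis, read after 3 days in glucose-containing 7H9 medium; the read-out is not stated. Tested at 500 µM. Direction is inferred from retests: higher values go with more growth inhibition. About 18,000 compounds were tested under these conditions; 7.9% (about 1,400) showed 50% or more at least once.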
Mtb cholesterol medium: 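Whole-cell growth test on Mycobacterium tuberculosis, read after 4 days in a medium based on cholesterol and the lipid DPPC; the read-out is not stated. Tested at 500 µM. Direction is inferred from retests: higher values go with more growth inhibition. Of about 18,000 compounds tested this way, about 900 (5%) reached 50% or more in at least one test.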

Values are the deposited “Percent Effect”, in %. The controls that fix the scale are not given in the record; negative values are as filed. The compounds are a random part of those screened.

compound	Mtb glucose medium	Mtb cholesterol medium
O=S(=O)(c1ccsc1CO)N1CCOCC1	18.62	8.63
NCc1ccc2c(c1)CNC2	-13.11	13.86
NC(=O)c1c(F)cccc1OCc1noc(C2CC2)n1	1.172	-11.24
CNS(=O)(=O)c1ccc(C(=O)N2CCCCC2C)o1 (configuration not stated)	5.171	3.57
COc1ncccc1CNC(=O)NC(C)c1cccs1 (configuration not stated)	8.889	-5.246
CN1CC(C#N)CC1=O (configuration not stated)	0.04566	-8.735
CCC(C)NS(=O)(=O)c1ccc(NC(C)=O)cc1 (configuration not stated)	31.7	12.44
COCc1cccc(S(=O)(=O)NCC(C)(C)N)c1	0.1137	-4.782
Cn1cnc(S(=O)(=O)NCc2ccccn2)c1Cl	-6.821	-14.16
CCNc1ncc(C(=O)N2CC=CC2CO)cn1 (configuration not stated)	12.24	-14.37
Cc1nnc(CCNC(=O)Cn2nccc2C)s1	6.035	-0.1247
CC(=O)Nc1ccc(F)cc1OCC(F)F	8.684	5.142
CS(=O)(=O)N(CCC1CCCO1)c1ccc(C#N)cc1 (configuration not stated)	5.589	-11.02
CC(=O)c1ccc(CN)nc1C	-5.48	0.767
O=S(=O)(NCC1CCCN1)c1cccc(F)c1 (configuration not stated)	26	16.23
CCN(Cc1cc(C)n[nH]1)CC1CCCO1 (configuration not stated)	6.17	9.33
CN1Cc2cccn2CC1CNC(=O)NC1CCCC1 (configuration not stated)	-29.13	-3.442
COc1cccc(CCC(=O)N2CCCC2)c1	75.82	69.53
CNCc1nc(-c2ccc(F)cc2)no1	29.98	18.71
CC(=O)Nc1ncn(Cc2ccc(C#N)cc2)n1	-2.754	-10.81
O[C@@H]1CN(Cc2ccccc2)C[C@@H]1O	17.65	-3.998
COC(=O)c1cc(OC)cs1	12.04	3.984
O=C(NCC1(O)CCNC1)c1ccc(F)c(O)c1 (configuration not stated)	1.326	-8.377
NC1CC12CCC(F)(F)CC2 (configuration not stated)	12.5	6.601
COCCN1CCCN(C(=O)C(C)(C)C)CC1=O	0.1134	-11.71
CN(c1ccccc1C#N)S(C)(=O)=O	7.929	19.55
CCn1ccnc1CNCC1CCN(CC(C)O)CC1 (configuration not stated)	14.47	2.652
COc1ccc(NC(=O)CCNC(C)=O)cc1Cl	23.12	7.994
CN(CC(=O)NCc1ccco1)C(=O)c1ccncc1	-2.262	-7.103
NCC1CCN1Cc1ccccc1 (configuration not stated)	23.81	5.425
Cc1cccc(C(=O)NC(C)c2nnc3n2CCC3)n1 (configuration not stated)	-10.25	-11.59
O=C1CCNc2ccccc21	14.78	2.944
CCOc1ncc(Cl)cn1	6.438	5.356
CCN(C)CCCO	11.58	-0.6772
Cc1cc(NC2CCN(C)C2=O)nc2ccccc12 (configuration not stated)	-4.696	-11.04
CC(C)(C)OCC(O)CN1CCCCC1 (configuration not stated)	0.5848	2.705
Cc1cncc(C(=O)NC(CO)CC(C)(C)C)c1 (configuration not stated)	8.768	9.796
CN(CCOc1ccccc1)C(=O)Nc1ccn(C)n1	47.62	36.63
CCNC(=O)NCc1ncoc1C	2.083	2.315
CCCN1CCN(CC(=O)Nc2ccc(Cl)cn2)CC1	34.18	25.37
O=C(CO)Nc1cc(S(=O)(=O)N2CCCC2)ccc1Cl	26.72	16.8
NC(=O)c1cc(Br)cc(S(=O)(=O)N2CC[C@@H](O)C2)c1	30.52	3.348
Cc1n[nH]cc1CNC(=O)C(C)N(C)CC(F)(F)F (configuration not stated)	9.428	-0.5327
Cc1noc(COc2cccc(C#N)c2)n1	32.66	30.87
CNc1nc(NCC2(CO)CCC2)ncc1Br	4.593	1.707
CC(C)(C)C(CCO)NC(=O)c1ccc(Br)cn1 (configuration not stated)	28.93	-9.954
CC(C)(O)COc1ccc(S(C)(=O)=O)cc1	10.12	5.047
COc1cccc(SCC(=O)N(C)[C@H]2COC[C@@H]2O)c1	12.13	0.5119
COC1(CNC(=O)NCCc2cnn(C)c2C)CCC1	15.27	0.634
CS(=O)(=O)NCCc1csc(N2CCCC2)n1	56.33	43.02